Drawing on PubChem BioAssay AID2685 (National Center for Advancing Translational Sciences (NCATS), 2010), this text covers cell number change and AC50 for 36 compounds.

The list shows a part of the results. Shown are side measurements of this screen, not its main read-out; they come without a call. The list favours compounds with an active or inconclusive main result. The note in brackets gives the kind of curve behind each potency; many fits are weak.

For orientation: AC50 means the midpoint of the concentration-response curve, whichever way the signal moves.

This assay can be described thus: qHTS Assay for Lipid Storage Modulators in Drosophila S3 Cells.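 As to cell number change: cells counted by Cell Tracker Red CMTPX staining in the red channel.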 The note with it: BODIPY lipid droplet fluorescence, 18-24 h; for cell number change: measured here: cell count max response, cells fed with added oleic acid. The method in brief:
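Laser-scanning cytometry quantifies lipid droplet accumulation (500–530 nm total intensity; droplet/cell object ratio) in oleic acid-fed (400 uM added) Drosophila S3 cells treated with a concentration series. 20 uM Triacsin C defined 100% inhibition.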
(In general: Quantitative high-throughput screening tests each substance at several concentrations.)

The mark [1] stands for this setting: measured here: lipid fluorescence (Fed channel) AC50, cells fed with added oleic acid.
Setting [2] is: measured here: cell number channel AC50, cells fed with added oleic acid.

On to `C[n+]1c(-c2ccccc2)cc(CCCCc2cc(-c3ccccc3)[n+](C)c(-c3ccccc3)c2)cc1-c1ccccc1`, for which the cell number change was -43.2%. Moreover, the concentration at half-maximal activity (AC50) under setting [1] was 29.1 µM [falling, partial curve, poor fit].
With `COC(=O)[C@@H]1[C@@H](C(=O)OC)C2(c3ccccc3-c3ccccc32)N(c2ccc(Cl)cc2)N1C#N`, the cell number change was -76.1%. Also, the AC50 under setting [2] was 7.31 µM [falling, partial curve]. For the same compound, under setting [1], the AC50 was 5.17 µM [falling, partial curve].
Take `COCCOC(=O)c1c(N)n(Cc2ccccc2)c2nc3ccccc3nc12`: the cell number change was found to be 0.929%. Besides, the half-maximal activity concentration (AC50) under setting [1] is 0.116 µM [rising, full curve, poor fit].
Turning to `CCCN(CCC)CCCNS(=O)(=O)c1ccc2c(c1)oc(=O)n2C`, under setting [2], the AC50 was 3.66 µM [falling, single point].
For the compound `Fc1ccc(C2=CCN(C(c3ccc(Cl)cc3)c3nnnn3Cc3ccccc3)CC2)cc1` (centres undefined), the cell number change came out at 64.2%. For the same compound, the AC50 under setting [2] was 13 µM [rising, partial curve, poor fit]. Besides, the AC50 under setting [1] is 4.61 µM [rising, full curve].
`CN1C2CCC1CC(OC(=O)c1cc(Cl)cc(Cl)c1)C2` (centres undefined): under setting [1], the AC50 was 0.0731 µM [falling, full curve, poor fit].
In the case of `Cc1ccc(OCCn2cccc2/C=C2/C(=O)NC(=O)N(Cc3ccco3)C2=O)cc1`, the cell number change is 36.1%. In addition, under setting [2], the half-maximal activity concentration (AC50) was 16.4 µM [rising, single point]. Further, the AC50 under setting [1] is 29.1 µM [rising, single point].
Regarding `CCC(=NCCCN1CCOCC1)c1c(O)n(Cc2ccccc2)c(=O)[nH]c1=O`, the cell number change is 28.5%. The half-maximal activity concentration (AC50) under setting [1] is 3.66 µM [rising, partial curve].
With `O=P(C(c1c[nH]c2ccccc12)N1CCOCC1)(N1CCOCC1)N1CCOCC1` (centres undefined), the cell number change is -0.99%.
In the case of `CCOP(=O)(OCC)C(O)c1ccc(OC)cc1OC` (centres undefined), the cell number change is -2.04%. The AC50 under setting [1] was 0.58 µM [rising, single point].
As to `CCCCNC(=S)N1CCn2cccc2C1c1cccnc1` (centres undefined), the cell number change is 23.1%. For the same compound, under setting [2], the concentration at half-maximal activity (AC50) was 0.00517 µM [rising, full curve, poor fit]. Also, the AC50 under setting [1] was 0.092 µM [rising, full curve, poor fit].
Take `CCOP(=O)(OCC)c1nc(-c2ccccc2)oc1NCc1ccccc1`: the AC50 under setting [2] is 0.231 µM [falling, partial curve].
For `Cc1ccc(C)c(NC2=NCCCS2)c1`, the cell number change is -109%. For the same compound, the half-maximal activity concentration (AC50) under setting [2] is 29.1 µM [falling, single point].
Consider `Cc1cccc(N=Nc2ccc(N(C)C)cc2)c1`, for which the cell number change was -14.3%. For the same compound, the AC50 under setting [1] was 1.46 µM [falling, partial curve].
Take `CCCn1c(C)c(C(=O)c2cccc3ccccc23)c2ccccc21`: the cell number change was found to be 52.8%. For the same compound, under setting [2], the AC50 was 11.6 µM [rising, single point]. Moreover, the concentration at half-maximal activity (AC50) under setting [1] is 20.6 µM [rising, partial curve].
Turning to `COc1ccccc1N=Nc1ccc(N)c(C)c1`, the concentration at half-maximal activity (AC50) under setting [2] is 0.00461 µM [falling, full curve, poor fit].
Consider `NCCCP(=O)(O)CCc1ccccc1`, for which the cell number change was -51.1%. The AC50 under setting [2] is 29.1 µM [falling, single point]. The AC50 under setting [1] is 18.4 µM [falling, single point].
Take `COC(=O)C1=C(c2ccc(C(C)=O)cc2)C[C@@H]2CC[C@H]1N2C(=O)N1CCC(C)CC1`: the cell number change is -4.24%. Moreover, the AC50 under setting [1] was 0.58 µM [falling, single point].
`COc1cc(OC)c(OC)cc1CNC(C)C(O)c1ccccc1` (centres undefined): the cell number change is -8.88%. Moreover, under setting [1], the concentration at half-maximal activity (AC50) was 20.6 µM [rising, single point].
Consider `CC1(C)CN2C(c3ccc(Cl)cc3)N2C1` (centres undefined), for which the cell number change is -7.12%.
For the compound `O=c1c2ccccc2nc(/C=C/c2ccc3c(c2)OCO3)n1-c1cccc(O)c1`, the cell number change stood at 17.5%. In addition, under setting [1], the AC50 was 0.206 µM [rising, full curve].
As to `COC(=O)c1c(N)n(Cc2ccc(OC)cc2)c2nc3ccccc3nc12`, the cell number change is -40.3%. Further, the AC50 under setting [2] is 29.1 µM [falling, single point].
In the case of `O=C1NC(=S)NC(=O)C12C(c1ccc(F)cc1)NC(=S)NC2c1ccc(F)cc1` (centres undefined), the cell number change was -55.5%. In addition, the AC50 under setting [2] was 1.64 µM [falling, full curve]. Further, under setting [1], the concentration at half-maximal activity (AC50) is 29.1 µM [falling, single point].
For the compound `COC(=O)C1=C(c2ccc(F)cc2OCc2ccccc2)C[C@@H]2CC[C@H]1N2C(=O)NCCNC(C)=O`, the cell number change is -13%.
For `CN(C)P(=NC(=S)c1cccn1C)(N(C)C)N(C)C`, the cell number change came to 11.6%. For the same compound, the half-maximal activity concentration (AC50) under setting [2] was 4.61 µM [falling, single point]. In addition, the concentration at half-maximal activity (AC50) under setting [1] was 6.51 µM [falling, partial curve].
In the case of `COC(=O)C1=C(c2ccccc2OCc2ccccc2)C[C@@H]2CC[C@H]1N2C(=O)NCc1ccc(N(C)C)cc1`, the AC50 under setting [1] was 25.9 µM [falling, partial curve, poor fit].
As to `CN1CCN(c2c(N)c(=O)oc3ccccc23)CC1`, the cell number change was -96.4%. Also, under setting [2], the AC50 is 23.1 µM [falling, partial curve].
As for `CCOc1cc(-c2ccc(N)c(OCC)c2)ccc1N`, the concentration at half-maximal activity (AC50) under setting [1] was 0.58 µM [rising, single point].
Same read-out and setting: next, `CC(=NCc1ccc2c(c1)OCO2)c1c(O)n(C)c(=O)n(C)c1=O`: 4.11 µM [rising, partial curve].
As for `COc1ccccc1OCCCn1cc(C(=O)c2ccco2)c2ccccc21`, the concentration at half-maximal activity (AC50) under setting [2] is 3.26 µM [rising, partial curve].
`CN1CCN(c2ccc(N)cc2)CC1`: the cell number change was -18.8%. In addition, under setting [1], the AC50 was 18.4 µM [falling, partial curve].
Regarding `Cc1ccc(N)c(C)c1`, the cell number change came out at 19.4%. Besides, under setting [1], the concentration at half-maximal activity (AC50) is 2.59 µM [falling, single point].
For `CN(c1ccccc1)c1ccc([N+](=O)[O-])c2nonc12`, the cell number change was -46.7%. Moreover, the concentration at half-maximal activity (AC50) under setting [2] is 16.4 µM [falling, single point]. Moreover, the AC50 under setting [1] is 16.4 µM [falling, single point].
With `CCC1C=CC=CC[C@H](C)[C@@H](O)[C@](C)(O)C(=O)[C@@H](C)[C@H](O)[C@@H](C)C(=O)[C@H](C)[C@@H](O)[C@H](C)C=CC(=O)OC2[C@@H](C)C(CC1)OC1(CC[C@@H](C)C(C[C@H](C)O)O1)[C@@H]2C` (some centres undefined), the cell number change was -36.7%. In addition, the AC50 under setting [1] is 0.0146 µM [falling, full curve, poor fit].
As for `OCC1(CO)COC(c2cccnc2)N1` (centres undefined), the cell number change was -1.89%. In addition, the half-maximal activity concentration (AC50) under setting [1] is 3.66 µM [falling, partial curve].
`CCN(CC)CCCN=C(C)c1c(O)n(C2CCCCC2)c(=O)[nH]c1=O`: the cell number change was 13.4%.
